Results are given in words; binding and its absence hold for the method and conditions named. A result given as binding can be weak or reduced; the word gives no strength. Where a sequence is shown, tags or fusion partners need not be part of it.
Molecular target: C. sporogenes MotA (residues 1–262, of the MotA1–262-FliG239–333 fusion) (Clostridium sporogenes)
Assay: cryo-EM structure; C. sporogenes MotA1–262-FliG239–333 fusion co-expressed with MotB-Twin-Strep in E. coli, purified in LMNG; 2.4 Å map; both purified

- binding: binds
B1: C. sporogenes FliG C-terminal domain (residues 239–333, of the MotA1–262-FliG239–333 fusion) (domain or fragment, UniProt A0A7X5SWG7 239-333)
chain: VFEDIITLDDVAIQRVLREVETKDLALALKGSSEEVANVIFRNQSKRAASSLKEDIEFLGPVRIMDVEKAQQGIVSIIRRLDEAGEIVISRGGED
